Test system: HeLa cells
Test: HeLa cell confluence by high-content microscopy over three weeks, with or without 100 nM methotrexate
Format: cell-based
Details: without methotrexate, 10-300 nM tested
Experimental: Cell confluence was measured via high-content microscopy over the time course.
HeLa cells were treated with a WEE1 inhibitor, 0.01-0.3 μM adavosertib alone, with 1 nM-100 nM PD0166285, with 100 nM methotrexate alone, or with a combination of 0.01-0.3 μM adavosertib and 100 nM methotrexate or a combination of 1 nM-100 nM PD0166285 and 100 nM methotrexate over the course of three weeks. Cell confluence was measured via high-content microscopy over the time course.
HeLa cells were treated with a PARG inhibitor, 3-100 μM PD00017273 with (FIG. 35 top panel) or without (FIG. 35 bottom panel) 100 nM methotrexate over the course of 3 weeks. Cell confluence was measured via high-content microscopy over the time course.
Cell confluence was measured via high-content microscopy over the time course. […] However.

With `C[C@@H]1COCCN1c1cc(-c2ccnn2C)c2ccnc(-c3ccn[nH]3)c2n1` [BAY1895344] the “toxicity on its own, concentration” value was “above 10 nM”.
